Assay results reported in PubChem BioAssay AID493014 (National Center for Advancing Translational Sciences (NCATS), 2011).
About 170 (0.05%) of roughly 340,000 compounds were called active. Inconclusive means that the source gave no clear call. Such entries were picked first, then a sample of the others. Calls come from the whole dose curve; as a rule, active = well fitted inhibition curve with a large enough effect in the signal ratio, with a control signal flat (not every such curve was filed as active); inconclusive = small, poorly fitted or top-dose-only effect, or effect the other way, or a change in a side signal; inactive = flat fitted curve, though single readings scatter; the % refers to the signal ratio. Potencies beside an inconclusive call are fits to weak or partial responses and may not hold up.

Assay: qHTS Assay to Find Inhibitors of Chronic Active B-Cell Receptor Signaling;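 for activity change, negative = inhibition: plate controls were basal doxycycline-induced cells for no effect and cells given 10 µM MG132 for full effect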
Conditions: ABC-DLBCL IkBa-CBG/CBR reporter, luminescence ratio (green luciferase fused to IkBa over red control in TMD8 lymphoma cells), 4 h; activity change, negative = inhibition: at 46.1 µM (top of the series)
In short: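 TMD8 human ABC-DLBCL cells with doxycycline-inducible IκBα–green luciferase fusion and unfused red luciferase, in 0.5% FBS medium; compounds up to 46 uM, 4 h at 37C. Green/red luminescence ratio, filter-overlap corrected, fitted to concentration-response curves.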
Potency is the fitted concentration of half-maximal effect.

Row | SMILES | Potency | activity change, negative = inhibition
1 | COc1ccc(CCn2c(-c3ccccc3)nc3c(c(=O)c4ccccc4n3C)c2=O)cc1 | inconclusive: 20.6 µM [falling, single point] | –
2 | CCOc1ccc2nc(N(CCN(CC)CC)C(=O)c3ccc([N+](=O)[O-])cc3)sc2c1 | – | inactive
3 | Cc1sc2ncn(-c3ccccc3)c(=O)c2c1C | – | inconclusive: -18.3%
4 | COc1ccc(CCNC(=O)c2ccc(S(=O)(=O)N(C)c3ccccc3)cc2)cc1OC | – | inconclusive: 5.09%
5 | Cc1cccc(C)c1NC(=O)c1sc(N)nc1-c1ccccc1 | – | inconclusive: 2.23%
6 | CCCc1cc(=O)[nH]c(SCCc2ccccc2)n1 | inconclusive: 22.4 µM [falling, single point] | –
7 | CN(CC(=O)NCc1cccnc1)S(=O)(=O)c1ccc(F)cc1 | – | inactive
8 | O=C(Nc1ccccc1)c1ccc(Br)c(S(=O)(=O)N2CCCCC2)c1 | – | inconclusive: 14.6%
9 | S=C(c1ccc(N2CCCC2)cc1)N1CCCCC1 | – | inactive
10 | Cc1cc(O)c2c(c1O)C(=O)[C@]13C(=C2O)C(=O)[C@@H]2[C@@H](O)[C@H]1[C@@H]1[C@H](O)[C@H]3C(=O)C3=C(O)c4c(O)cc(C)c(O)c4C(=O)[C@]312 | – | inconclusive: -4.28%
11 | COc1ccc(C(=O)N/N=C/c2ccc3cccc(OCc4ccccc4)c3n2)cc1 | – | inconclusive: -28%
12 | Cc1cc(N/N=C/c2ccco2)c2ccccc2n1 | – | inactive
13 | COc1ccc(-c2ccc(C#N)c(SCC(=O)Nc3sc4c(c3C#N)CCC4)n2)cc1OC | – | inconclusive: 5.4%
14 | COc1cc(OC)cc(C(=O)NCCC(c2ccccc2)c2ccccc2)c1 | – | inactive
15 | N#C/C(=C/c1ccc([N+](=O)[O-])cc1)C(=O)Nc1ccccc1O | inconclusive: 23.1 µM [falling, partial curve, poor fit] | –
16 | Nc1nc2ccccc2n1/N=C/c1ccc2c(c1)OCO2 | – | inactive
17 | Cc1ccc(-c2c(C)sc3nc[nH]c(=O)c23)cc1C | inconclusive: 0.562 µM [falling, partial curve, poor fit] | –
18 | O=C(COc1ccccc1)Nc1nnc(S(=O)(=O)N2CCCC2)s1 | – | inactive
19 | CCOc1ncccc1C(=O)N1CCN(Cc2ccc3c(c2)OCO3)CC1 | inconclusive: 0.411 µM [falling, full curve, poor fit] | –
20 | COc1ccccc1/C=C1\SC(=S)N(Nc2nc(C)cc(C)n2)C1=O | – | inconclusive: -0.446%
21 | CC(=O)Nc1cccc(OC(=O)COc2ccc(Br)cc2)c1 | – | inactive

Row | SMILES | Potency | activity change, negative = inhibition
22 | COc1ccccc1-c1nnc(NC(=O)c2ccc(S(=O)(=O)N(C)CC3CCCO3)cc2)o1 (configuration not stated) | inconclusive: 11.2 µM [falling, partial curve] | –
23 | Cc1c(N=C2N=C(NC(=O)c3ccc(F)cc3)c3ccccc32)c(=O)n(-c2ccccc2)n1C | – | inconclusive: 4.04%
24 | CC12CCC(=O)N1C(C(=O)NCCN1C(=O)S/C(=C\c3ccccc3F)C1=O)CS2 (configuration not stated) | inconclusive: 20.6 µM [falling, single point] | –
25 | O=C(c1ccccc1Br)N1CCN(c2ccc([N+](=O)[O-])c(N3CCOCC3)c2)CC1 | – | inactive
26 | Cc1cc(-c2ccccc2)n(-c2ccccc2)n1 | – | inconclusive: 1.66%
27 | COc1ccc(C(=O)c2oc3ccc(OC)cc3c2N)cc1 | – | inactive
28 | O=C(/C=C/c1cn(CC(O)CN2CCCCC2)c2ccccc12)c1cccs1 (configuration not stated) | – | inconclusive: -15.9%
29 | Cc1ccc(NC(=O)CSc2nc(O)cc(=O)n2-c2ccc(C)cc2)cc1 | – | inactive
30 | Cc1c(C(=S)Nc2ccccc2)cnn1-c1ccc([N+](=O)[O-])cc1 | – | inconclusive: 0.68%
31 | COc1ccccc1NS(=O)(=O)c1cccc(C(=O)N/N=C/c2c(CO)cnc(C)c2O)c1 | – | inactive
32 | CC(=O)Nc1ccc(S(=O)(=O)Nc2nc3cc4c(cc3nc2Cl)OCCO4)cc1 | inconclusive: 14.1 µM [rising, single point] | –
33 | O=C(CCN1C(=O)C2C3C=CC(C3)C2C1=O)N1CCN(c2ccccn2)CC1 (configuration not stated) | – | inactive
34 | Cc1ccc(SC/C(O)=C(\C#N)c2nc3ccccc3s2)cc1 | inconclusive: 11.6 µM [falling, single point] | –
35 | CCOC(=O)c1c(-c2cccs2)csc1NC(=O)CN(CC)CC | – | inconclusive: 20.7%
36 | COc1cc(/C=N/NC(=O)CCN2CCN(C)CC2)cc2c1OCO2 | – | inactive
37 | CC(=O)Oc1c(/C=C(\C#N)C(N)=O)[nH]c2ccccc12 | inconclusive: 29.1 µM [falling, single point] | –
38 | O=C(Nc1ccc(F)cc1)C(=O)c1c(O)[nH]c2ccc([N+](=O)[O-])cc12 | – | inconclusive: 218%
39 | CCS(=O)(=O)c1cc([N+](=O)[O-])c(Sc2ccccc2NC(C)=O)s1 | inconclusive: 3.16 µM [falling, full curve, poor fit] | –
40 | COc1cccc(C(=O)/C=C2\Sc3ccccc3N2C)c1 | inconclusive: 25.1 µM [falling, single point] | –
41 | Cc1cc(C)nc(N/N=C/C(Cl)=C/c2ccccc2)n1 | inconclusive: 2.31 µM [rising, partial curve, poor fit] | –
42 | O=C(N/N=C/c1ccco1)c1ccccc1OCc1ccc(Br)cc1 | – | inconclusive: -1.32%

Nothing new here: an excerpt of the list.
Row | SMILES | Potency | activity change, negative = inhibition
35 | CCOC(=O)c1c(-c2cccs2)csc1NC(=O)CN(CC)CC | – | inconclusive: 20.7%
36 | COc1cc(/C=N/NC(=O)CCN2CCN(C)CC2)cc2c1OCO2 | – | inactive

Following part:

Row | SMILES | Potency | activity change, negative = inhibition
43 | O=C(Nc1ccc(-c2nc3cc(Cl)ccc3o2)cc1)C1CCCO1 (configuration not stated) | inconclusive: 2.59 µM [rising, partial curve, poor fit] | –
44 | Cc1noc(C)c1CSc1nc2ccccc2c(=O)n1-c1ccccc1 | – | inconclusive: -19.9%
45 | Cc1cc(-c2ccccc2)n[nH]1 | – | inactive
46 | O=C1OC2(c3ccccc31)c1cc(I)c(O)c(I)c1Oc1c2cc(I)c(O)c1I | inconclusive: 9.2 µM [rising, partial curve] | –
47 | Cc1ccc(S(=O)c2ccc(NC(=O)C3CC3)cc2C#N)cc1 (configuration not stated) | – | inactive
48 | COC(=O)C1=C(C)NC(=O)NC1c1ccccc1Cl (configuration not stated) | – | inactive
49 | CC(=O)Nc1ccc2c(c1)CCCC2=O | – | inconclusive: 9.13%
50 | Cc1cc(SCC(=O)NCCC2=CCCCC2)nc2ccccc12 | – | inactive
51 | C=CCn1c(=O)c2ccccc2n2c(SC(C)C(=O)Nc3nc(-c4ccccc4)cs3)nnc12 (configuration not stated) | – | inactive
52 | CSC1=NCCN1C(=O)c1ccc(Br)o1 | – | inconclusive: -16.5%
53 | O=C(NCc1cccnc1)Nc1ccc(Cl)cc1Cl | – | inactive
54 | Cc1ccc(N=CC2=C(O)CC(C)(C)CC2=O)nc1 | – | inconclusive: 0.395%
55 | NC(=O)[C@@H]1CCCN1C(=O)c1ccc2nc(Cc3cccc(Cl)c3)oc2c1 | – | inactive
56 | CCOc1c(Nc2ccc(C(C)C)cc2)c(=O)c1=O | – | inconclusive: 6.68%
57 | O=C(Cn1nc(CNc2ccc(Cl)cc2)[n+]2c1CCCCC2)c1ccc(Cl)cc1 | inconclusive: 16.4 µM [rising, partial curve, poor fit] | –
58 | CCN(CC)C(=O)C(Sc1nnnn1-c1ccc(O)cc1)c1ccccc1 (configuration not stated) | – | inactive
59 | Cc1ccc(S(=O)(=O)N2CCN(C(=O)CN3C(=O)NC(C)(c4ccc(Cl)cc4)C3=O)CC2)c(C)c1 (configuration not stated) | – | inconclusive: -2.09%
60 | CCN(CC)C(=O)CSc1nc2c(sc(=S)n2-c2ccc(C)cc2C)c(=O)[nH]1 | – | inactive
61 | O=C(CCNC(=O)c1ccccc1Cl)NCCC1=CCCCC1 | – | inconclusive: 9.74%
62 | CCNc1nc(NCC)n2c(SCC(=O)Nc3cccc(F)c3)nnc2n1 | inconclusive: 29.1 µM [falling, partial curve, poor fit] | –
63 | O=C(Cn1nc(C(F)F)cc1C(F)F)NNC(=S)Nc1ccc([N+](=O)[O-])cc1 | – | inconclusive: 27.6%

Row | SMILES | Potency | activity change, negative = inhibition
64 | O=C(Nc1ccnc(-c2cccnc2)n1)c1ccc(Cl)c(Cl)c1 | – | inconclusive: 3.24%
65 | CCN(C(=O)c1cn(C)c(=O)c2cc(OC)c(OC)cc12)c1ccccc1C | – | inconclusive: -7.19%
66 | COc1cc(SC)ccc1C(=O)Nc1ncc(C)s1 | inconclusive: 5.62 µM [rising, single point] | –
67 | O=S(=O)(Nc1cccc(-n2cnnn2)c1)c1cc(Cl)ccc1Cl | – | inactive
68 | CCCN1C[C@H](CSC)C[C@@H]2c3cccc4[nH]cc(c34)C[C@H]21 | – | inactive
69 | Cc1[nH]c2ccccc2c1C(=O)C(C)OC(=O)C1CCC1 (configuration not stated) | – | inactive
70 | O=C(Nc1ccccc1)c1cccc(N2C(=O)C3C4CC(C(Br)C4Br)C3C2=O)c1 (configuration not stated) | – | inconclusive: 4.64%
71 | COCCCn1c(C(=O)NCCN2CCOCC2)cc2c(=O)n3ccccc3nc21 | inconclusive: 35.5 µM [falling, partial curve] | –
72 | CCOC(=O)c1ccc2c(c1)nc(SCc1cn3ccsc3n1)n2CC | – | inconclusive: -3.92%
73 | COc1ccc(/C=C/c2ccncc2)cc1 | – | inconclusive: -11.6%
74 | COc1ccc(-c2nc(SCC(=O)Nc3cc(C)on3)n[nH]2)cc1 | – | inactive
75 | Cc1cc(N)ccc1N=Nc1c(C)n(C)n(-c2ccccc2)c1=O | – | inconclusive: -3.52%
76 | CC(=O)Nc1cccc(Oc2cc(C#N)c(C#N)cc2N2CCOCC2)c1 | inconclusive: 9.2 µM [falling, partial curve] | –
77 | O=C1c2ccccc2C(=O)N1CCCCN(C(=O)c1ccc(Cl)s1)c1ccc(Cl)cc1 | – | inactive
78 | CS(=O)(=O)N1CCCC(C(=O)c2cccc(Cl)c2)C1 (configuration not stated) | – | inconclusive: 0.438%
79 | CCC(C)[C@H](NC(=O)c1cc2cc(Cl)ccc2n1C)C(=O)N1CCC(C(=O)O)CC1 (some centres not stated) | – | inactive
80 | O=C(N/N=C/c1ccccn1)c1sc2ccccc2c1Cl | inconclusive: 11.2 µM [falling, single point] | –
81 | N#CC1=C(N)OC2=C(C(=O)CCC2)C1CCc1ccccc1 (configuration not stated) | inconclusive: 29.1 µM [rising, single point] | –
82 | CCc1ccc2c(CN(CC)Cc3nc4ccccc4c(=O)[nH]3)cc(=O)oc2c1 | – | inconclusive: 5.86%
